According to paper PMC5386714:
No constants are given. Whether binding was seen depends on the method and setting. For part of these data: In cells and extracts the contact can be indirect. Some binding calls cover weakened binding; strength is not graded here. For part of these data: Tags and fused reporters may be left off the sequences shown. Values belong to the binder of their own block, whether it stands above or below them.

Experiments:
[1] = molecular target: T1, myc-tagged PHF14 (wild type) (human) (UniProt O94880); test: co-IP; myc-PHF14 or its mutants and GFP-KIF4A co-overexpressed in HCT-116 cells; ethidium bromide in the IP buffer
T1 sequence: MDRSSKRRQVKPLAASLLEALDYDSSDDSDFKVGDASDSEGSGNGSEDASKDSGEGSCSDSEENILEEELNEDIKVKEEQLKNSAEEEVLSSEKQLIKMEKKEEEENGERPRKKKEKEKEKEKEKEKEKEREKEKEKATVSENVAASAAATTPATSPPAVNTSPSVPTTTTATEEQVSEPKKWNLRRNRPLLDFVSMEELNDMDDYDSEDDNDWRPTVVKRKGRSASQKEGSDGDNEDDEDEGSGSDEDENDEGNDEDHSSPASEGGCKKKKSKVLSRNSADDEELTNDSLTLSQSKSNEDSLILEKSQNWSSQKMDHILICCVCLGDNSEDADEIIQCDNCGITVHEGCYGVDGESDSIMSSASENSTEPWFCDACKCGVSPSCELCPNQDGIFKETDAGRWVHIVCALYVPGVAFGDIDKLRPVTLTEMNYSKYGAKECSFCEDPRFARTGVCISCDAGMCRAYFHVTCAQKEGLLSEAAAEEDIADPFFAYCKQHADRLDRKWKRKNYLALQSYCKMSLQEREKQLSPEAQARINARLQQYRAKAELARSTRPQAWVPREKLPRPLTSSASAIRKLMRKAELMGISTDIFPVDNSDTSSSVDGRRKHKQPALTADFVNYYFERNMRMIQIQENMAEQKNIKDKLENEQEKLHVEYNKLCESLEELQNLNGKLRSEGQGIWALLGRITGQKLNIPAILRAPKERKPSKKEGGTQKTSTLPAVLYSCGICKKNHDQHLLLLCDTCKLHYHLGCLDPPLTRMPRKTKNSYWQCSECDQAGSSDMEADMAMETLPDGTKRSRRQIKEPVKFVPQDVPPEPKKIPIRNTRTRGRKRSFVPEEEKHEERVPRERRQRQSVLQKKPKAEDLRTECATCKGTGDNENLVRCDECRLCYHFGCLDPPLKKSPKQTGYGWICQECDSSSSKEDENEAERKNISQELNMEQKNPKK

[2] = molecular target: T2, KIF4A-unbound PHF14 mutant (Δ1-160a.a) (human) (UniProt O94880); test: as above
T2 sequence: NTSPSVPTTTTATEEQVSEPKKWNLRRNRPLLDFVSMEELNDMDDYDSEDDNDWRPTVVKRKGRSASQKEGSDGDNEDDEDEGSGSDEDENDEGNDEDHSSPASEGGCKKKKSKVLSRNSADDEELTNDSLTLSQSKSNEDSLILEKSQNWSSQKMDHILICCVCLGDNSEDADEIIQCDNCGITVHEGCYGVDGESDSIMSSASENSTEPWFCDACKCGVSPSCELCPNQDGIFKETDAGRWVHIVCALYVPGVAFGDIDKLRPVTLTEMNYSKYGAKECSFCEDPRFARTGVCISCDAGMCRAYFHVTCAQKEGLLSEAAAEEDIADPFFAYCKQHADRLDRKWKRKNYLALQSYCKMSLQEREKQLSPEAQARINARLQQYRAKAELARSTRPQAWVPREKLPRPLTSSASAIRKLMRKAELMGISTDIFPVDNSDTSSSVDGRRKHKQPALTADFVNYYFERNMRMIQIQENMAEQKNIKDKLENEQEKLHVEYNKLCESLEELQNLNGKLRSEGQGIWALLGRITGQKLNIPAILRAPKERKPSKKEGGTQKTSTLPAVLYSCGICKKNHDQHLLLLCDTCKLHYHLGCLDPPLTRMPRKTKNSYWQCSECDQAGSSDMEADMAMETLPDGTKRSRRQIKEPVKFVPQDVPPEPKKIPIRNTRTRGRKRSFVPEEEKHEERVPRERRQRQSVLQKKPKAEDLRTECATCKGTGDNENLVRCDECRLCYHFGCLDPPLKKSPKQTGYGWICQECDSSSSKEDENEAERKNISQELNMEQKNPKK

[3] = molecular target: T3, PHD finger protein 14 (PHF14), endogenous (human (endogenous in A549, HeLa, 293T)) (UniProt O94880); test: co-IP; GFP-tagged WT KIF4A or deletion mutants expressed in 293T cells, co-immunoprecipitation with PHF14; ethidium bromide in the IP buffer
T3 sequence: T1 sequence

[4] = molecular target: T3, PHD finger protein 14 (PHF14), endogenous (human (endogenous in A549, HeLa, 293T)); test: co-IP; endogenous proteins in A549 cells, immunoprecipitation with anti-PHF14 and reciprocally with anti-KIF4A antibodies; ethidium bromide in the IP buffer
[5] = molecular target: T3, PHD finger protein 14 (PHF14), endogenous (human (endogenous in A549, HeLa, 293T)); test: SEC; FPLC gel filtration of HeLa nuclear extract (50 mM Tris-HCl pH8.0, 0.3 M NaCl, 1 mM EDTA) on HiLoad 16/60 Superdex 200, eluted with PBS; fractions analysed by western blotting
[6] = molecular target: T4, kinesin family member 4A (KIF4A), endogenous (human (endogenous in A549, HeLa)) (UniProt O95239); test: co-IP; endogenous proteins in A549 cells, immunoprecipitation with anti-PHF14 and reciprocally with anti-KIF4A antibodies; ethidium bromide in the IP buffer
T4 sequence: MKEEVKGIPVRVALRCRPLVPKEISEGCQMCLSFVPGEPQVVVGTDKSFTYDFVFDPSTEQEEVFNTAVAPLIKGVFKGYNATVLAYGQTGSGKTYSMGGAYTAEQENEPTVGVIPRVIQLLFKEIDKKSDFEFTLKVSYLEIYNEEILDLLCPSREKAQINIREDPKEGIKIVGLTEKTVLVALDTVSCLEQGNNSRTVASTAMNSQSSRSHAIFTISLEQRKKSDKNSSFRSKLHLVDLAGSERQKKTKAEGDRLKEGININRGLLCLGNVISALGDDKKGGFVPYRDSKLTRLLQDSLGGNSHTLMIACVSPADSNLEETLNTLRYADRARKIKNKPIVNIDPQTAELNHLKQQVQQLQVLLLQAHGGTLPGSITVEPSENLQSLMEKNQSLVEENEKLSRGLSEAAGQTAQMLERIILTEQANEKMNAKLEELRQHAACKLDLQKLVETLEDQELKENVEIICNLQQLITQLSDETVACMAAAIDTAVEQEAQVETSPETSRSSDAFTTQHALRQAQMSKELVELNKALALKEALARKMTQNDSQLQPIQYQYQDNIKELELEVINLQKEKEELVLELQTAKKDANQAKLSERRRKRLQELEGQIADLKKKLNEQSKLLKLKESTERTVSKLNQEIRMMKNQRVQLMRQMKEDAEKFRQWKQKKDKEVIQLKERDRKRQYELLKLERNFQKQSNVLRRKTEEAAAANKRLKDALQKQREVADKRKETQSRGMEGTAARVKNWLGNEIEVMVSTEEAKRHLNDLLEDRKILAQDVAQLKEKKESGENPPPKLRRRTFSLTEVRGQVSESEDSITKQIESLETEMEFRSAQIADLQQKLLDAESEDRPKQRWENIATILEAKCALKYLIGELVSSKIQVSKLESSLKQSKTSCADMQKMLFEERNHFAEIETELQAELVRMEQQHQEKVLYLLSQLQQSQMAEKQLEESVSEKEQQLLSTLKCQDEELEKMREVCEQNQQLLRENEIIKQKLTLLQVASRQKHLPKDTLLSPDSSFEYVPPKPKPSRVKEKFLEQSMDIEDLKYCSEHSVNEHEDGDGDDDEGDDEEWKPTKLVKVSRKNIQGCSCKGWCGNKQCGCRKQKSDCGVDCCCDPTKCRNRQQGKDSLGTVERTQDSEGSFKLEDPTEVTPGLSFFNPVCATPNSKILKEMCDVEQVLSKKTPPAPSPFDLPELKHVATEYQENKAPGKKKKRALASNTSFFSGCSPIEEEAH

- binding [1]: binds
- binding [2]: no binding
- binding [3]: binds
B1: GFP-tagged WT KIF4A (protein, UniProt O95239 1-1232)
chain: T4 sequence

- binding [4]: binds
- binding [5]: binds
B2: kinesin family member 4A (KIF4A), endogenous (protein, UniProt O95239 1-1232)
chain: T4 sequence

- binding [6]: binds
B3: PHD finger protein 14 (PHF14), endogenous (protein, UniProt O94880 1-948)
chain: T1 sequence
